# Data from patent US20100104659A1, “BENZOPYRANOPYRAZOLES” (priority 2006, published 2010).
# Some results were stated once for a whole list of compounds, not compound by compound.
# Target: T1, Eg5 kinesin motor domains (Homo sapiens, UniProt P52732)
# T1 construct: The ATPase activity of Eg5 kinesin motor domains (Cytoskeleton, cat. No. EG01); purchased Cytoskeleton EG01
# T1 sequence (P52732 18-359 limits assumed): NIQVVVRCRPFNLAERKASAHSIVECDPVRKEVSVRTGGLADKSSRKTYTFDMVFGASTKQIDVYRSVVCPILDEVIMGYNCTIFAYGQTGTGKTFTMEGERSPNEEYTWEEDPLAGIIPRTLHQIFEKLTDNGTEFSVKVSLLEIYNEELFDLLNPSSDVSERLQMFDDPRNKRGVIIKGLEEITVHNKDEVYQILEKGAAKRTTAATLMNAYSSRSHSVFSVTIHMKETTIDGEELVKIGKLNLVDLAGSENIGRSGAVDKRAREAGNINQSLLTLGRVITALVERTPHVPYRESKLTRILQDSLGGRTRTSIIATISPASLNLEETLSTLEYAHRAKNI
# Assay: ATPase activity of Eg5 kinesin motor domains (Malachite green)
# Assay type: biochemical
# Details: 300 μM ATP, 250 nM microtubules, 30 min room temperature
row,Compound,"Inhibition of Eg5 activity, −log IC50 [mol/l]"
1,"CN1CCC(N(C)C(=O)N2N=C3c4cc(F)ccc4OC[C@@H]3[C@@H]2c2cccc(O)c2)CC1 (single isomer, unassigned) [Example 3, (3RS,3aRS)-8-Fluoro-3-(3-hydroxy-phenyl)-3a,4-dihydro-3H-chromeno[4,3-c]pyrazole-2-carboxylic acid methyl-(1-methyl-piperidin-4-yl)-amide]",compounds are all ≧6.2 mol/l
2,"CN(CCN)C(=O)N1N=C2c3cc(F)ccc3OC[C@@H]2[C@@H]1c1ccccc1 (stereo in doubt) [Example 18, (3RS,3aRS)-8-Fluoro-3-phenyl-3a,4-dihydro-3H-chromeno[4,3-c]pyrazole-2-carboxylic acid (2-amino-ethyl)-methyl-amide]",compounds are all ≧6.2 mol/l
3,"(3RS,3aRS)-8-Fluoro-3-phenyl-3a,4-dihydro-3H-chromeno[4,3-c]pyrazole-2-carboxylic acid ((R)-1-isopropyl-piperidin-3-ylmethyl)-methyl-amide and (3RS,3aRS)-8-Fluoro-3-phenyl-3a,4-dihydro-3H-chromeno[4,3-c]pyrazole-2-carboxylic acid ((S)-1-isopropyl-piperidin-3-ylmethyl)-methyl-amide [Example 26]",compounds are all ≧6.2 mol/l
4,"(3RS,3aRS)-8-Fluoro-3-phenyl-3a,4-dihydro-3H-chromeno[4,3-c]pyrazole-2-carboxylic acid methyl-((R)-1-methyl-piperidin-3-ylmethyl)-amide and (3RS,3aRS)-8-Fluoro-3-phenyl-3a,4-dihydro-3H-chromeno[4,3-c]pyrazole-2-carboxylic acid methyl-((S)-1-methyl-piperidin-3-ylmethyl)-amide [Example 24]",compounds are all ≧6.2 mol/l
